According to patent US8426559B2, “Injectable β-hairpin peptide hydrogel that kills methicillin-resistant Staphylococcus aureus” (University of Delaware, priority 2009, dated 2013):
At least one peptide structure holds a part that was inferred or is arguable (an end, a ring closure or a residue). For part of these data: The name of at least one read-out is uncertain. Non-standard residues stand in square brackets, D forms with d. Residues, ends and D or L forms follow the SMILES beside them.

Tests used:
MRSA [1] = experiment: Proliferation on TCTP control surface in presence of soluble (folded but not gelled) peptide; type: cell-based, Staphylococcus aureus; conditions: 100 μM aqueous solution (not hydrogel), 2×10^6 CFU/dm^2 MRSA
[2] = test system: MRSA (methicillin-resistant Staphylococcus aureus, ATCC 33591); experiment: Antibacterial assay: bacteria introduced onto hydrogel-coated TCTP surface, proliferation by OD625nm; type: cell-based; conditions: 2 wt % hydrogel on TCTP, challenged with 2×10^8 CFU/dm^2 MRSA, 24 hr at 37° C.
Protocol: The antibacterial activity of MARG1 hydrogels was assessed via two distinct assays. In the first assay, bacteria were introduced to the surface of tissue culture treated polystyrene (TCTP) coated with a ˜1-2 mm layer of the gel and its ability to inhibit bacterial proliferation was assessed. This assay measures the ability of MARG1 gels to thwart new infection at a particular site. Here, gels were formed directly on the polystyrene surface without the aid of shear-thin delivery. In the second assay, MARG1 gels were shear-thin delivered via syringe to agar surfaces infected with bacteria, and the ability of the gel to kill bacteria on contact was measured. […]
The gels were incubated for 24 hr at 37° C., and bacterial proliferation was quantitated by light scattering as described in Salick, D. A.; Kretsinger, J. K.; Pochan, D. J.; Schneider, J. P. J. Am. […]
For each assay, 100 μL of bacteria-free TSB was introduced onto the surface of the hydrogels. […] After this, bacterial growth was monitored by measuring OD625nm of the liquid above the gel by adding 100 μL of bacteria-free TSB to the surfaces, gently mixing and transferring the supernatant to a cuvette. Corrected OD625nm values were calculated to correct for dilution and to normalize for scattering that occurs for each individual bacterial strain. […]

[3] = Oscillatory shear rheology of hydrogel; type: physicochemical; conditions: for Storage modulus (G′): DMEM-triggered, 37° C., 0.2% strain
MSSA = experiment: Proliferation on TCTP control surface in presence of soluble (folded but not gelled) peptide; type: cell-based, Staphylococcus aureus; conditions: 100 μM aqueous solution (not hydrogel), 2×10^6 CFU/dm^2 MSSA
MRSA [4] = experiment: Shear-thin delivery of hydrogel via syringe onto bacteria-contaminated agar, visual and live/dead LSCM assessment; type: cell-based, Staphylococcus aureus

## CC(C)[C@H](N)C(=O)N[C@@H](CCCCN)C(=O)N[C@H](C(=O)N[C@@H](CCCCN)C(=O)N[C@H](C(=O)N[C@@H](CCCNC(=N)N)C(=O)N[C@H](C(=O)N[C@@H](CCCCN)C(=O)N[C@H](C(=O)N1CCC[C@@H]1C(=O)N1CCC[C@H]1C(=O)N[C@H](C(=O)N[C@@H](CCCCN)C(=O)N[C@H](C(=O)N[C@@H](CCCCN)C(=O)N[C@H](C(=O)N[C@@H](CCCNC(=N)N)C(=O)N[C@H](C(=O)N[C@@H](CCCCN)C(=O)N[C@H](C(N)=O)C(C)C)C(C)C)C(C)C)C(C)C)[C@@H](C)O)C(C)C)C(C)C)C(C)C)C(C)C [MARG1, VKVKVRVKV^DPPTKVKVRVKV-NH2] (H-VKVKVRVKV[dP]PTKVKVRVKV-NH2)
MRSA [1]
  MRSA proliferation in presence of peptide solution: minimally affected
[2]
  MRSA proliferation on hydrogel-coated surface (OD): complete inhibition
[3]; 2 wt % gel, after several minutes
  Storage modulus (G′): 500 Pa
[3]; 2 wt % gel, at 60 minutes
  Storage modulus (G′): 2,200 Pa
[3]; 2 wt % gel, in seconds after shear-thinning
  Recovery of original rigidity after cessation of 1000% strain: about 50%
[3]; dynamic strain sweep of gels
  Yield strain: approximately 20%
MSSA
  MSSA proliferation in presence of peptide solution: minimally affected
MRSA [4]; 2 wt % hydrogel shear-thin delivered via syringe to lawn of MRSA on agar, 24 hours incubation
  Bacterial growth on agar beneath delivered hydrogel (visual assessment): absence of bacterial growth
MRSA [4]; 2 wt % hydrogel sheared onto MRSA-loaded agar, dyes added after 24 hour incubation
  Viability of bacteria in contact with hydrogel (live/dead assay, LSCM): effectively killed
